From ChEMBL document CHEMBL4433200, “Another look at phenolic compounds in cancer therapy the effect of polyphenols on ubiquitin-proteasome system” (Eur J Med Chem, 2019)

Biological target: T1, Proteasome Macropain subunit MB1 (Homo sapiens, UniProt P28074)
T1 sequence (P28074 whole entry): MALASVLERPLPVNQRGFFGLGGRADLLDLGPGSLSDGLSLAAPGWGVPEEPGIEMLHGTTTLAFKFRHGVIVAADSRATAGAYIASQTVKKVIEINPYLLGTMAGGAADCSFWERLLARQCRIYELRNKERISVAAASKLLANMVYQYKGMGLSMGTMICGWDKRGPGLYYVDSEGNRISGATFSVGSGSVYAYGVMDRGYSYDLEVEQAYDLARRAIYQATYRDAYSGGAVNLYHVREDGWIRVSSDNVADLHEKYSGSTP
Assay: Inhibition of chymotrypsin-like activity of purified human erythrocyte 20S proteasome assessed as decrease in AMC hydrolysis using Suc-LLVY-AMC as substrate preincubated for 10 mins and measured by fluorescence based method

`O=C1C[C@@H](c2ccccc2)Oc2cc(O)ccc21` gave an IC50 of 5.21 µM.
